These are yes or no findings as the source states them, for the method shown. Binding seen in cells or lysates may run through a third protein. Some results given as binding are weak or reduced against the parent protein; the word gives no strength.
Tests used:
[1] = biological target: T1, Tankyrase-1 (mouse (endogenous in C2C12)) (UniProt Q6PFX9); assay: co-IP; anti-TNKS1 or IgG antibodies on lysates of differentiating C2C12 cells expressing GFP, GFP-HuR^WT or GFP-HuR^G224D; protein A/G magnetic beads; washes with 25 mM Tris-HCl pH 8.0, 650 mM NaCl, 0.05% Tween-20; western blot
T1 sequence: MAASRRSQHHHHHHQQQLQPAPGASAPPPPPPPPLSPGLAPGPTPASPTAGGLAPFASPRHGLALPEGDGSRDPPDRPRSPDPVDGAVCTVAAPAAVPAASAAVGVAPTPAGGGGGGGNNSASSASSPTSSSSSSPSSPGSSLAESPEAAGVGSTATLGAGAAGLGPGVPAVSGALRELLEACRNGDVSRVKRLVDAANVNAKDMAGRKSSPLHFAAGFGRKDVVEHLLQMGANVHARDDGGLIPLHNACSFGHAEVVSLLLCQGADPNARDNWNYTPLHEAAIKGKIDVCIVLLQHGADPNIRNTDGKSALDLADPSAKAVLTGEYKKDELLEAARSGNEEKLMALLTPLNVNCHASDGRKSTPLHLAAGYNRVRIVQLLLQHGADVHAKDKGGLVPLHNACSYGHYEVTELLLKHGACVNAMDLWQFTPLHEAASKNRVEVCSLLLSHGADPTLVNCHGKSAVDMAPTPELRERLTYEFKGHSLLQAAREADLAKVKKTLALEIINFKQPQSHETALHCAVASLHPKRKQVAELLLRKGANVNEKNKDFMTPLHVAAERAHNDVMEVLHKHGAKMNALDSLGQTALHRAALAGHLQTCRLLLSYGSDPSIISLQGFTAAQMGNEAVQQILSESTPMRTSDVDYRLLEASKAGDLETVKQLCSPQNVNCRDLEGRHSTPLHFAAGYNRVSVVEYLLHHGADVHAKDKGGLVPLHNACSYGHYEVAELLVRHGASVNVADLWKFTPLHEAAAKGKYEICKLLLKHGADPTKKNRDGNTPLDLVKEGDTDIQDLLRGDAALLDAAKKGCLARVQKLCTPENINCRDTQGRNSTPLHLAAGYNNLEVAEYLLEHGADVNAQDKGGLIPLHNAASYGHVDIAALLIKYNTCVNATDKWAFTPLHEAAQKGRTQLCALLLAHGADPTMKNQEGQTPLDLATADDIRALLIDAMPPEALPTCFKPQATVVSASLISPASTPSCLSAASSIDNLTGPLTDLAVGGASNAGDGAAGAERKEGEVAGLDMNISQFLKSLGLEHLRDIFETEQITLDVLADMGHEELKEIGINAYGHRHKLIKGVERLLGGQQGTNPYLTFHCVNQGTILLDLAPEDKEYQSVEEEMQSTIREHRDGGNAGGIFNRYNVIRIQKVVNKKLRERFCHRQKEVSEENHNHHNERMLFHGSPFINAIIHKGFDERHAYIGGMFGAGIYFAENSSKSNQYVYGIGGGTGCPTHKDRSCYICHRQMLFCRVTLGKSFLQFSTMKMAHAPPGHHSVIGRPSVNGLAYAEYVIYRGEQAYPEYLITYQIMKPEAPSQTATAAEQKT

Amino acid sequences for entries named in this document (tags omitted). A change or cut given only in a name is not applied to a line headed by its entry. Chains listed by the source or under a name are the forms on record and can include a tag or linker.
UniProt Q15717: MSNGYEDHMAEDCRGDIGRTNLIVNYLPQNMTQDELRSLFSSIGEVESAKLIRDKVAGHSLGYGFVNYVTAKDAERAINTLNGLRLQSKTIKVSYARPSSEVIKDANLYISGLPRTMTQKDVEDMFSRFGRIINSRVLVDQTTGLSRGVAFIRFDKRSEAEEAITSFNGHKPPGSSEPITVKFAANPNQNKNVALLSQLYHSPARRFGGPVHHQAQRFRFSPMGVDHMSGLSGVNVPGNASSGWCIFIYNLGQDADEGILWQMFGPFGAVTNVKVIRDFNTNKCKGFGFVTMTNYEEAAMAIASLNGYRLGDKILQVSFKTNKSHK
GFP-HuR containing a glycine (G) to aspartate (D) mutation at the 224 position (Q15717, form named): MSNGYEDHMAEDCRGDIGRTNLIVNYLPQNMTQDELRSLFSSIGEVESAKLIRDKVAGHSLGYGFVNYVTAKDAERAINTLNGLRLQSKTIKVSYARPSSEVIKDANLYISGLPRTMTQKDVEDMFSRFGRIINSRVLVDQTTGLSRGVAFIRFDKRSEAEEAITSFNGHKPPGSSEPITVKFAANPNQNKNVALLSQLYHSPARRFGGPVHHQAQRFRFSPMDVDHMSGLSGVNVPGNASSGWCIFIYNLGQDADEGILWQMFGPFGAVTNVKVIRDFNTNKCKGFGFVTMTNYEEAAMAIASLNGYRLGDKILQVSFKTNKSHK
UniProt P70372: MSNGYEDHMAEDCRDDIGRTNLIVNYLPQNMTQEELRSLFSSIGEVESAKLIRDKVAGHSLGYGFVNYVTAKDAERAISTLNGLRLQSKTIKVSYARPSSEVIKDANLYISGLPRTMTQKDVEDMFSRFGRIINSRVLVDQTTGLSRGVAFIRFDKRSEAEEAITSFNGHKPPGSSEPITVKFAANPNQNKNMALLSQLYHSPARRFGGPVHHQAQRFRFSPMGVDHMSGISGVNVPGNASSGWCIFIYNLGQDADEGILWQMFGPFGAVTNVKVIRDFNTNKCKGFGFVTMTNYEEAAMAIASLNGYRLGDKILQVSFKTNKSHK

[2] = biological target: T2, transportin-2 (mouse (endogenous in C2C12)) (UniProt Q99LG2); assay: co-IP; anti-TRN2 or IgG antibodies on extracts of differentiating (D2) C2C12 cells transfected with siCTRL or siTNKS1; protein A/G magnetic beads; washes with 25 mM Tris-HCl pH 8.0, 650 mM NaCl, 0.05% Tween-20; western blot for HuR
T2 sequence: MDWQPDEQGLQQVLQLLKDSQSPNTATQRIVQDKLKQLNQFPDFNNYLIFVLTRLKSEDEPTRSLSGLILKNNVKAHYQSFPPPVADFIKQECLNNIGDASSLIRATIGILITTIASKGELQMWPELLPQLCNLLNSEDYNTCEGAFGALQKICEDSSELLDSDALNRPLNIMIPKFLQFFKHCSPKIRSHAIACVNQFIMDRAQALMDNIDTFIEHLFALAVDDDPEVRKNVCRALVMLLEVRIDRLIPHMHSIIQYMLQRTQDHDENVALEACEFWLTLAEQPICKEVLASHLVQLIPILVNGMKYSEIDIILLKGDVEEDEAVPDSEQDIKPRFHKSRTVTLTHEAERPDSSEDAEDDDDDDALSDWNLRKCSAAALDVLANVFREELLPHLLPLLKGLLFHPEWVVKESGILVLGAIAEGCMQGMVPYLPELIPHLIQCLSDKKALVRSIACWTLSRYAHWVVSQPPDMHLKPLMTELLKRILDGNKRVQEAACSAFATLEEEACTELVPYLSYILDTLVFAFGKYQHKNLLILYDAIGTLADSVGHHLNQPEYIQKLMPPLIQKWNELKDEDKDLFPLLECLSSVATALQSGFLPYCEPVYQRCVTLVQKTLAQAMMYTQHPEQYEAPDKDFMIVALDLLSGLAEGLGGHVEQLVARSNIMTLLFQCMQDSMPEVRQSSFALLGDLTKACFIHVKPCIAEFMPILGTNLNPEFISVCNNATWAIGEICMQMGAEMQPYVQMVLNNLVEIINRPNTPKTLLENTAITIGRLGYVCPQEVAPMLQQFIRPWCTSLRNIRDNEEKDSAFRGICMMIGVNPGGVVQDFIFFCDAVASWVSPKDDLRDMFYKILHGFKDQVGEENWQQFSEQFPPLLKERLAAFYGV

Substance: GFP-HuR containing a glycine (G) to aspartate (D) mutation at the 224 position (from UniProt Q15717 1-326)
- binding [1]: no binding

Substance: GFP-HuR wild-type (from UniProt Q15717 1-326)
- binding [1]: binds

Substance: Human Antigen R (HuR), endogenous (from UniProt P70372 1-326)
- binding [2]: binds

Reference: publication PMC11040007
